According to PubChem BioAssay AID504444 (National Center for Advancing Translational Sciences (NCATS), 2011):
Screen size: about 360,000 compounds; about 7,500 (2.1%) were called active. Inconclusive means that the source gave no clear call. Such entries were picked first, then a sample of the others. Calls follow the shape of the dose curve; as a rule, active = well fitted inhibition curve with a large enough effect; inconclusive = small, poorly fitted or top-dose-only effect, or effect the other way; inactive = flat fitted curve, though single readings scatter. Potencies of inconclusive entries are doubtful fits and often do not repeat.

assay: Nrf2 qHTS screen for inhibitors; settings: A549 ARE-Fluc reporter, luciferase luminescence, 18-24 h; activity change, negative = inhibition: at 46 µM (top of the series); also: nearly all actives have a fitted effect of over 60% in size
Summary of the method: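 Nrf2 function is reported as luminescence of an ARE-controlled luciferase in A549 cells. Compounds were tested at several concentrations, and a CellTiter-Fluor read on the same wells flagged cytotoxicity.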
% is scaled to controls: 0 for no effect and ±100 for the full control effect; potency is read from the fitted curve at half-maximal effect.

Row | SMILES | Potency | activity change, negative = inhibition
1 | CCOc1ccc(NS(=O)(=O)c2ccc(OCC)c3ncccc23)cc1 | inconclusive: 32.6 µM [falling, single point] | –
2 | Nc1c(C(=O)c2ccccc2)oc2ccc(Br)cc12 | inconclusive: 20.6 µM [activator, single point] | –
3 | COc1cccc(NC(=O)COC(=O)c2sccc2C)c1 | inconclusive: 8.2 µM [activator, partial curve] | –
4 | C=CCn1cc(C(=O)NCCCOC)c(=O)c2cc(S(=O)(=O)N3CCC(C)CC3)ccc21 | inconclusive: 25.9 µM [falling, single point] | –
5 | Cc1ccc(C2CC(=O)Nc3cc4c(cc32)OCCO4)cc1Br (stereo unspecified) | active: 18.4 µM | –
6 | COc1ccc(-c2nnc(NC(=O)c3ccc(S(=O)(=O)N4CCc5ccccc5C4)cc3)o2)cc1 | active: 2.82 µM | –
7 | COc1cc(NC(=O)C2=CC(c3ccc(F)cc3)=NS(=O)(=O)N2C)cc(OC)c1OC | inconclusive: 16.4 µM [activator, single point] | –
8 | O=[N+]([O-])c1ccccc1COc1ccc(Cl)c2cccnc12 | inconclusive: 5.8 µM [activator, partial curve] | –
9 | CCc1ccc(CNC(=O)CCc2c(C)nn(-c3ccc(N4CCCC4)nn3)c2C)cc1 | inconclusive: 0.92 µM [falling, partial curve, poor fit] | –
10 | CCCCC(=O)NC(c1ccccc1OC)c1ccc2cccnc2c1O (stereo unspecified) | active: 20.6 µM | –
11 | COC(=O)C1=CN(c2ccc(F)cc2)C=C(C(=O)OC)C1c1cccc([N+](=O)[O-])c1 | inconclusive: 18.4 µM [falling, partial curve, poor fit] | –
12 | COc1ccc(C(CNC(=S)NCc2ccccc2)N2CCCC2)cc1 (stereo unspecified) | inconclusive: 13 µM [activator, partial curve, poor fit] | –
13 | O=C(C1CC=CCC1)N1CCN(C(=O)C2CC=CCC2)CC1 (stereo unspecified) | – | inactive: 1.24%
14 | Cc1ccccc1OCC(=O)NCC(=O)N/N=C/c1ccc(Br)o1 | inconclusive: 3.66 µM [falling, partial curve, poor fit] | –
15 | OC(CNc1nc(-c2cccnc2)nc2ccccc12)c1ccccc1 (stereo unspecified) | inconclusive: 20.6 µM [activator, partial curve] | –
16 | O=C(/C=C/c1cccc(F)c1)Nc1ccc(S(=O)(=O)N2CCOCC2)cc1 | inconclusive: 23.1 µM [falling, single point] | –
17 | COc1ccc(-c2c(C(F)(F)F)oc3cc(OCC(=O)Nc4ccccc4C(F)(F)F)ccc3c2=O)cc1OC | inconclusive: 8.2 µM [falling, partial curve, poor fit] | –
18 | CC(=O)Nc1ccc(N2CCN(C(=O)c3cccs3)CC2)cc1 | – | inactive: 8.69%
19 | O=C(c1ccccc1)N(CCO)Cc1cc2cc3c(cc2[nH]c1=O)OCCO3 | – | inactive: 6.79%
20 | O=C1C2C3C=CC(C3)C2C(=O)N1CCCCCCN1C(=O)C2C3C=CC(C3)C2C1=O (stereo unspecified) | active: 14.6 µM | –
21 | COc1ccc(CNC(=O)Cn2nc(C(F)(F)F)cc2C)cc1 | inconclusive: 3.26 µM [activator, full curve] | –
22 | CCOc1ccc(N2C(=O)CC(NCC#N)C2=O)cc1 (stereo unspecified) | – | inactive: 12.1%

Row | SMILES | Potency | activity change, negative = inhibition
23 | O=C(Nc1ccccc1N1CCCCC1)C1CCN(C(=O)c2ccc(Cl)cc2)CC1 | inconclusive: 29.1 µM [falling, single point] | –
24 | CC(=O)c1ccc(NC(=O)/C(Cl)=C/c2ccccc2)cc1 | inconclusive: 16.4 µM [activator, partial curve] | –
25 | Fc1ccc(-c2csc(NC3=NCCC3)n2)cc1 | inconclusive: 20.6 µM [activator, single point] | –
26 | CCC(=O)OCOc1ccc(/C=C2/CCC(CN(C)C)C2=O)cc1 (stereo unspecified) | – | inactive: -4.36%
27 | COC(=O)COc1ccc2c(=O)c(Oc3ccccc3Br)coc2c1 | inconclusive: 29.1 µM [falling, single point] | –
28 | CCOC(=O)CN1C(=O)S/C(=C/c2ccc(O)c([N+](=O)[O-])c2)C1=O | inconclusive: 29.1 µM [falling, single point] | –
29 | CC(C)(Cc1ccc(O)cc1)NC(=O)CC(=O)N/N=C/c1ccc([N+](=O)[O-])cc1 | inconclusive: 0.731 µM [falling, full curve, poor fit] | –
30 | Cc1ccc(C(=O)Nc2nc(-c3ccccn3)cs2)cc1S(=O)(=O)N1CCOCC1 | active: 8.2 µM | –
31 | C[C@@]12C(=O)Nc3ccc(F)cc3C(=O)N1[C@H]1c3ccccc3OC[C@@H]1[C@@H]2c1ccccc1 | inconclusive: 32.6 µM [falling, single point] | –
32 | COc1ccc(NC(=O)Cn2c(=O)n(CCC(=O)NCC3CCCO3)c(=O)c3cc(OC)c(OC)cc32)cc1 (stereo unspecified) | inconclusive: 2.31 µM [activator, partial curve, poor fit] | –
33 | CN(Cc1ccccc1)C(=O)c1ccc(CSc2nc3cccnc3n2Cc2ccccc2F)cc1 | inconclusive: 29.1 µM [falling, single point] | –
34 | O=S(=O)(c1ccc(F)cc1)N1CCN(Cc2cc3c(cc2Br)OCCO3)CC1 | inconclusive: 29.1 µM [falling, single point] | –
35 | O=C(O)CCCC(=O)N1N=C(c2c(-c3ccccc3)c3cc(Cl)ccc3[nH]c2=O)CC1c1cccs1 (stereo unspecified) | inconclusive: 0.0041 µM [falling, full curve, poor fit] | –
36 | Cn1cc(C(=O)N/N=C/c2cccs2)c2ccccc21 | inconclusive: 1.84 µM [activator, partial curve] | –
37 | CCCS(=O)(=O)N1CCCC(C(=O)NCc2cccnc2)C1 (stereo unspecified) | inconclusive: 6.51 µM [activator, single point] | –
38 | CCc1cccc(-n2nnc(-c3nsc(NC(=O)c4cccc(OC)c4)n3)c2C)c1 | inconclusive: 13 µM [falling, partial curve, poor fit] | –
39 | CCOC(=O)c1cc2c(=Cc3ccc(N(C)C)cc3)c3ccccc3n2[n+]1C | active: 8.2 µM | –
40 | c1ccc(-c2ccc(C3=Nn4c(Cn5nnc6ccccc65)nnc4SC3)cc2)cc1 | inconclusive: 29.1 µM [falling, single point] | –
41 | O=C(Cn1ncc2c3ccccc3n(Cc3ccccc3F)c2c1=O)NCc1ccccc1Cl | – | inactive: 3.3%
42 | CCC(=O)c1ccc(/C=C/c2nc3ccccc3n2C)o1 | inconclusive: 3.26 µM [activator, partial curve] | –
43 | C=CC[C@H](CC(=O)N(CCO)Cc1ccccc1)C(=O)NC[C@H](OC(=O)[C@@H](CC=C)Cc1ccc(F)cc1)c1ccccc1 | active: 18.4 µM | –
44 | Cc1nnsc1C(=O)NC1CCCc2c1cnn2-c1cc(F)cc(F)c1 (stereo unspecified) | inconclusive: 20.6 µM [falling, partial curve, poor fit] | –

Row | SMILES | Potency | activity change, negative = inhibition
45 | Cc1csc2nc(O)c(C(=O)NCCC3=CCCCC3)c(=O)n12 | – | inactive: -29.1%
46 | CC(=O)Nc1ccc(Nc2cc(C)nc3c(-c4ccccc4)cnn23)cc1 | inconclusive: 1.64 µM [activator, partial curve, poor fit] | –
47 | CC1CCCN(S(=O)(=O)CCNC(=O)c2ccccc2)C1 (stereo unspecified) | – | inactive: -0.173%
48 | Cc1ccc(S(=O)(=O)CC(=O)c2ccc(C(C)(C)C)cc2)cc1 | – | inactive: -8.06%
49 | Cc1cc2oc(=O)cc(CN3CCC(C)CC3)c2cc1C | inconclusive: 14.6 µM [activator, partial curve] | –
50 | COc1cccc(OCCNC(=O)c2cc(OC)c(OC)c(OC)c2)c1 | inconclusive: 29.1 µM [falling, single point] | –
51 | CCCCCCC(=O)Nc1c(O)c2ccccc2[nH]c1=O | inconclusive: 20.6 µM [activator, single point] | –
52 | CC(C)N(C(=O)CSc1cn(CC(=O)N2CCCCCC2)c2ccccc12)C(C)C | – | inactive: -9.18%
53 | c1ccc(-c2ccc3sccc3n2)cc1 | inconclusive: 8.2 µM [activator, partial curve] | –
54 | OCCNCc1cc(Br)ccc1OCc1ccc(Cl)cc1 | inconclusive: 9.2 µM [falling, partial curve, poor fit] | –
55 | COc1ccc(NC(=O)c2ccco2)cc1NC(=O)C(C)(C)Oc1ccc(Cl)cc1 | active: 20.6 µM | –
56 | CC(Sc1ccccc1)C(=O)NN=C1CCCCCCC1 (stereo unspecified) | inconclusive: 29.1 µM [activator, single point] | –
57 | COc1ccc(OC(C)C(=O)N(C)Cc2nc(-c3cccc(C)c3)no2)cc1 (stereo unspecified) | inconclusive: 32.6 µM [falling, single point] | –
58 | COc1ccc(C(C)NCCC(c2ccc(OC(C)C)cc2)c2ccccc2OC)cc1 (stereo unspecified) | inconclusive: 23.1 µM [activator, partial curve] | –
59 | COc1ccc(Cl)cc1NC(=S)N1CCN(c2ccccn2)CC1 | inconclusive: 13 µM [falling, partial curve] | –
60 | CNc1ccc(Br)cc(C(=O)/C=C/c2cccc(OC)c2)c1=O | inconclusive: 20.6 µM [falling, single point] | –
61 | CC(C)C[C@H](NC(=O)c1[nH]cnc1C(=O)Nc1ccc(Cl)cc1)C(=O)OC(C)(C)C | inconclusive: 20.6 µM [falling, partial curve] | –
62 | CC(/C=N/n1c(C2CCCCC2)n[nH]c1=S)=C\c1ccccc1 | active: 18.4 µM | –
63 | CCc1ccc(-n2nc(C)c3c(C(=O)N4CCN(c5ccccc5)CC4)cc(C)nc32)cc1 | active: 18.4 µM | –
64 | Nc1nc(SCc2ccc(Cl)cc2)ns1 | inconclusive: 10.3 µM [activator, partial curve, poor fit] | –
65 | CC(C)(C)NC(=O)C(c1ccc(-c2ccccc2)cc1)N(C[C@H]1CC[C@@H]([C@@H]2CC[C@H](CO)O2)O1)C(=O)c1ccc2ccccc2c1 (stereo partly specified) | inconclusive: 20.6 µM [falling, single point] | –
66 | CC(=O)Nc1ccc(S(=O)(=O)Nc2cccc(NC(=O)C(C)(C)C)c2)cc1 | inconclusive: 32.6 µM [falling, single point] | –

Nos. 51 through 53 from above:
Row | SMILES | Potency | activity change, negative = inhibition
51 | CCCCCCC(=O)Nc1c(O)c2ccccc2[nH]c1=O | inconclusive: 20.6 µM [activator, single point] | –
52 | CC(C)N(C(=O)CSc1cn(CC(=O)N2CCCCCC2)c2ccccc12)C(C)C | – | inactive: -9.18%
53 | c1ccc(-c2ccc3sccc3n2)cc1 | inconclusive: 8.2 µM [activator, partial curve] | –
